From patent US20230012560A1, “HEPATITIS B ANTIVIRAL AGENTS” (TAIGEN BIOTECHNOLOGY CO., LTD., priority 2019, published 2023)
Some entries share one result that the patent states for a list of compounds. For at least one compound, name, drawing or mass did not settle the structure.

system: HBV (HepAD38 cells); test: Real-Time PCR Assay (extracellular HBV DNA from HepAD38 culture supernatants); assay type: cell-based, hepatitis B virus; conditions: compound treatment for 5 days without tetracycline, extracellular DNA in culture supernatant quantified by real-time PCR, read-out: EC50 (50% effective concentration)
Method: HepAD38 cells were seeded and cultured on 96-well plates. After incubation for 2 days, cells were fed with compound-containing media without tetracycline. After compound treatment for 5 days, culture supernatants were collected. Extracellular DNA was then extracted using LabTurbo DNA mini kit, and quantified by real-time PCR.
Real-time PCR was performed using an ABI QuantStudio 3 system in a 96-well optical plate format. The PCR mixture containing forward primer (5′-[…]-3′) (SEQ ID NO.1), reverse primer (5′-GGTGAGTGATTGGAGGTTG-3′) (SEQ ID NO.2) and Luna Universal qPCR Master Mix in a final volume of 24 μl was incubated at 95° C. for 10 min followed by 45 cycle of incubation at 95° C. for 10 s and 60° C. for 10 s. Regression analysis was performed using GraphPad Prism 5 to calculate the 50% effective concentration (EC50) values.

| Structure (SMILES) | EC50 [nM] |
| --- | --- |
| CCNC(=O)C(=O)N1CCC(NS(=O)(=O)c2cn(CC(F)F)c(C(=O)Nc3ccc(F)c(F)c3)c2F)CC1 [Compound 89] | < 100 |
| CCNC(=O)C(=O)N[C@@H]1CCCN(S(=O)(=O)c2cn(C)c(C(=O)Nc3cc(F)c(F)c(F)c3)c2F)C1 [Compound 64] | < 100 |
| CNS(=O)(=O)NC1CCCC(NS(=O)(=O)c2cn(C)c(C(=O)Nc3ccc(F)c(F)c3)c2F)C1 (centres unmarked) [Compound 29] | < 100 |
| CC(C)NS(=O)(=O)N1CCC(NS(=O)(=O)c2cn(C)c(C(=O)Nc3ccc(F)c(F)c3)c2F)CC1 [Compound 23] | < 100 |
| CNS(=O)(=O)N1CC[C@@H](NS(=O)(=O)c2cn(C)c(C(=O)Nc3ccc(F)c(Cl)c3F)c2F)C1 [Compound 15] | < 100 |
